# Results of single-concentration screens

Amino acid sequences for entries named in this document (tags omitted).
UniProt P9WPC5, whole entry: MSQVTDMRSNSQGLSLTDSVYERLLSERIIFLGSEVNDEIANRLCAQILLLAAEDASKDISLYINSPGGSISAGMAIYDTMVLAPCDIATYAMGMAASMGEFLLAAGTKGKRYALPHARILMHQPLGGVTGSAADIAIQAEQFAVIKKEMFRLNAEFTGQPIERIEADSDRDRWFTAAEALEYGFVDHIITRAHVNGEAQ
UniProt P9WPC3, whole entry partner: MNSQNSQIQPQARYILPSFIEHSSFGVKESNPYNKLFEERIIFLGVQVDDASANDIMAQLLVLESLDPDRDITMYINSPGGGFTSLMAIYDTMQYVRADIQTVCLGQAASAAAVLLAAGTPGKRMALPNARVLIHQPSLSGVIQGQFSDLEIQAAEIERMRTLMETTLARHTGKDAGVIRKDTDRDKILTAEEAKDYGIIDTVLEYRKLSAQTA
UniProt P9WFT3, whole entry: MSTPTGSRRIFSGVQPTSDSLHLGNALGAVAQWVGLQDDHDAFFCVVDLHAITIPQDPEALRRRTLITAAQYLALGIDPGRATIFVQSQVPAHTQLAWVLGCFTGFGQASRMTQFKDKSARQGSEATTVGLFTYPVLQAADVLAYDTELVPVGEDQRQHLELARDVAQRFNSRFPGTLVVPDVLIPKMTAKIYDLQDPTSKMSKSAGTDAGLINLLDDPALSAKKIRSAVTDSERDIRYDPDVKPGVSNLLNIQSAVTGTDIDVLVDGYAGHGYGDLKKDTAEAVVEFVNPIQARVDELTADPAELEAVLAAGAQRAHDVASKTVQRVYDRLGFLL
UniProt P9WNZ1, whole entry: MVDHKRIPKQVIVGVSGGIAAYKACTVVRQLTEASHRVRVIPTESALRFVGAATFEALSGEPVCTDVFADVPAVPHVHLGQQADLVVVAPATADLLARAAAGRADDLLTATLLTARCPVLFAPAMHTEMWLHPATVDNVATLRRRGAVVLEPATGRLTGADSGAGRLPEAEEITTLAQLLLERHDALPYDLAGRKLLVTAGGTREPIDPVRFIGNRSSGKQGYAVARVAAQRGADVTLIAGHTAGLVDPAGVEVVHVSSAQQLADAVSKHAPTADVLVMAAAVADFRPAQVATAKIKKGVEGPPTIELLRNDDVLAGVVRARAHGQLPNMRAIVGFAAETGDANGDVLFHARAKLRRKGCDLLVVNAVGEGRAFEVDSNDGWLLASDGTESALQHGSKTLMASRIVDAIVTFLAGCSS

Source: ChEMBL document CHEMBL3988442, “University of Dundee, Small-Polar-MMV Screening Library” (2021).

Values are the deposited “Percent Effect”, in %. How 0% and 100% were set is not recorded. Most values in the screen are low, and negative values occur. This is an unselected part of the compounds tested. A dash means the value is not listed here; it may have been measured.

ClpP1P2: 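Protease assay of ClpP1P2, read by the AMC dye that it sets free. Target: ClpP1P2, Mycobacterium tuberculosis (UniProt P9WPC5 and UniProt P9WPC3). Tested at 50 µM. Direction is inferred from only a few compounds that gave an IC50; most scored high, so higher reads as stronger inhibition. Most other retested compounds had strongly negative values. Of about 69,000 compounds tested this way, about 10 (0.015%) reached 50% or more in at least one test.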
Toxoplasma: 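Assay of Toxoplasma gondii numbers, read through their beta-galactosidase reporter with a colour substrate. Concentration: 10 µM. Higher reads as fewer parasites (inferred from which compounds were picked for retests). About 67,000 compounds were tested under these conditions; 0.38% (about 260) showed 50% or more at least once.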
MtTrpRS: 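Enzyme assay of tryptophanyl-tRNA synthetase; the read-out is not stated. Target: Tryptophan-tRNA ligase, Mycobacterium tuberculosis (UniProt P9WFT3). Tested at 10 µM. Higher most likely means stronger inhibition; the record gives no direction and few retests gave an IC50. Of about 65,000 compounds tested this way, about 64 (0.098%) reached 50% or more in at least one test.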
CoaBC: 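Enzyme assay of CoaBC with a phosphate dye (Biomol Green) read at 650 nm. Target: Coenzyme A biosynthesis protein CoaBC, Mycobacterium tuberculosis (UniProt P9WNZ1). Concentration: 30 µM. Higher reads as stronger inhibition, judged from the few compounds that gave an IC50. Most strong results did not repeat in a second test. Size under these conditions: about 67,000 compounds, about 40 of them at 50% or above in at least one test.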

SMILES | ClpP1P2 | Toxoplasma | MtTrpRS | CoaBC
O=C(c1nn(-c2ccccc2F)cc1O)N1CCCC1 | 5.404 | 6.354 | -0.09719 | 1.349
Cc1cc(N(C)C)nc(C2CCCNC2)n1 (stereo not shown) | -11.23 | - | -1.015 | 6.993
CC(C)Cc1cc(C(=O)NCCn2nc3ccccn3c2=O)[nH]n1 | -12.11 | 4.602 | -2.143 | -2.316
CCn1cc(CN2CCCN(C(=O)CCc3cccs3)CC2)cn1 | -6.892 | 0.7257 | -5.648 | 5.548
c1cc(CNc2ncc(-c3cnccn3)c(C3CC3)n2)ccn1 | -5.647 | - | -1.698 | 3.8
CC(C)(CO)NCc1ccc(OCc2ccc3c(c2)OCCO3)cc1.Cl | - | 11.36 | - | -
CC(=O)NCCNC(=O)Nc1cccc(Cl)c1SC(F)F | -9.901 | 0.3793 | 0.97 | -4.167
CCN(Cc1cnn(C)c1)C[C@H]1CC[C@@H](Cc2ccc(C#N)cc2)O1 | -6.405 | -0.306 | -5.676 | 7.589
CCCc1n[nH]c(C2CN(CCNS(C)(=O)=O)CCO2)n1 (stereo not shown) | 13.84 | -8.133 | 13.16 | 5.725
[H][C@]12CCCC(N(C)Cc3cccs3)[C@@]1([H])CN(C(=O)c1cccn1C)C2 (stereo partly shown) | - | 9.978 | - | -
Cn1ccnc1-c1nccn1C[C@@H]1CCCN2CCCC[C@H]12 | -0.6544 | - | -3.521 | 5.967
CC(C)NC(=O)C1CN(C(=O)Cc2ccccc2)CC12CCOCC2 (stereo not shown) | 5.485 | 0.09588 | -2.075 | 5.013
Cc1ccc(S(=O)(=O)N2CCN(Cc3ccncc3)CC2)c(Cl)c1 | -19.38 | 8.619 | 0.306 | 3.89
CN1CCN(CC2CC2)C(=O)c2cnc(N3CC[C@@H](O)C3)nc21 | -3.992 | 0.2101 | 0.08446 | 3.259
CCn1c(CN(C)Cc2cnc(C)s2)nc2cc(F)ccc21 | -13.07 | -2.875 | -1.611 | 3.535
CCCn1cc(C(=O)NCCCC(N)=O)c2ccccc21 | 5.393 | 3.933 | -0.867 | 7.826
CCc1nc(CN2CCCN(C(=O)c3c(C)noc3C)CC2)cs1 | 11.91 | -14.21 | 6.013 | 3.627
CC(C)(C)c1cc(NC(=O)CN2CCCC(Cn3cncn3)C2)on1 (stereo not shown) | -4.06 | -3.19 | 11.87 | -
Cc1nc(NCC2CC2)nc2c1COCC21CCN(CC(=O)N(C)C)C1 (stereo not shown) | -0.6605 | -16.63 | 1.564 | 2
CN(C)C(C(=O)N1CCC(CCO)CC1)c1ccccc1F (stereo not shown) | 13.54 | 1.321 | 7.295 | 10.06
CCc1nc2ccccc2c(=O)n1CC1(O)CCN(C(=O)COC)CC1.Cl | - | 54.94 | - | -
Cn1c(CN2CCOCC2)cc(=O)c(O)c1CN1CCCCC1 | -9.556 | -1.335 | 7.021 | 3.148
Cc1cccc(N2CCC3(CCCC(=O)N3)CC2)n1 | 3.111 | - | -6.365 | -
Cc1cc2cc(CNC(=O)c3cnn4c3OCCC4)ccc2[nH]1 | 6.472 | 9.009 | -4.635 | 11.21
CCOc1ccc2[nH]c(=O)c(CN(C)CCc3cn[nH]c3)cc2c1 | -29.18 | -8.406 | 1.784 | -11.97
CCOCCN1CCN(c2ccc(C#N)cn2)CC1CC (stereo not shown) | -13.14 | -1.443 | 4.542 | 4.207
Cn1cc(CN2CCC3(CC2)CCN(C(=O)c2cscn2)CC3)cn1.O=C(O)C(F)(F)F | - | 7.914 | - | -
CC[C@@H](NC(C)=O)C(=O)NCc1cccnc1Oc1ccccc1OC | 13.28 | -8.116 | 4.894 | -0.1972
COc1ccc(Oc2nccc3occc23)cc1CN1CCCC1 | 1.046 | -12.24 | 0.7692 | 4.177
CCOC(=O)c1nc(COc2ccc(CC(N)=O)cc2)no1 | 24.17 | 17.06 | 3.56 | 1.205
Cc1nccn1-c1cccc(C2CCCN2S(=O)(=O)c2cn(C)cn2)n1 (stereo not shown) | -5.666 | -2.52 | -4.25 | -1.178
Cn1ccc(CN2CCC(Oc3ccccc3)CC2)cc1=O | -0.09048 | -0.6353 | -0.07993 | 1.446
CC(=O)NC1CCN(c2cnc(C3CCNCC3)cn2)CC1.Cl | - | -9.155 | - | -
COCC(=O)N1CCCCC1c1ccnc(Nc2ncc(C)s2)n1 (stereo not shown) | -11.52 | -35.04 | - | 3.098
CCCNC(=O)CSc1nnc2[nH]c(=O)c3c(n12)CCCC3 | 10.95 | 16.6 | 12.99 | 9.091
O=C(c1cccn1Cc1cccs1)N1CCC(C(=O)N2CCCC2)CC1 | -7.742 | 17.21 | -1.885 | 5.974
COc1ccccc1CN1CC(OC)CN(C(=O)OCC(C)C)CC1=O (stereo not shown) | 1.615 | 0.5573 | - | -3.313
Cc1cccc(C)c1NCc1noc(C2CC2)n1 | -12.76 | -39.22 | 6.464 | 0
Cc1cnc(CNC(=O)[C@@]23CCO[C@@H]2CCN(c2ncccn2)C3)cn1 | 3.82 | - | - | 3.951
COC(=O)CNC(=O)C(C)Oc1ccccc1C(F)(F)F (stereo not shown) | -13.16 | 18.96 | -2.114 | 4.645
CCc1ccc(C(=O)N2CCCCC2Cn2cccn2)o1 (stereo not shown) | -28.13 | -1.734 | 2.322 | 0.6227
CC(C)(C)C(O)CN1CCN(CCOCC(F)(F)F)CC1 (stereo not shown) | -0.2249 | -1.073 | 5.156 | -0.9185
CCOC1Sc2nnc(C)n2N=C1c1ccc(Br)cc1 (stereo not shown) | -1.691 | 8.36 | 3.834 | -1.342
Oc1cc(C2CCCCN2CC2CC2)nc(-c2ccncc2)n1 (stereo not shown) | 2.828 | 18.31 | -10.27 | 5.521
O=C(O)C(F)(F)F.O=C(O)C(F)(F)F.c1cnc(N2CC3(CCN(Cc4ccncc4)C3)C2)nc1 | - | -2.765 | - | -
CSCc1noc(C2CCC(=O)N(CCc3ccccc3)C2)n1 (stereo not shown) | 4.271 | 3.144 | -5.901 | 6.17
CNC(=O)CCNC(=O)c1cc(C)n(-c2cccc(OC)c2)c1C | -14.05 | -26.62 | -1.719 | 3.412
CCOc1ncccc1NC(=O)N1CCN(CC(=O)NC)CC1 | -1.513 | 16.72 | 8.418 | 11.58
Cc1ccn(-c2ccnc(N3CCSCC3)n2)n1 | -12.91 | -23.59 | 4.203 | -0.3797
CCS(=O)(=O)CC(=O)N1CCCC1c1noc(C2CC2)n1 (stereo not shown) | 5.303 | - | -1.49 | 2.829
CC(C)c1ccc(-n2ncc(C(=O)NCC3COC(C)(C)O3)c2N)cc1 (stereo not shown) | 13.98 | 23.64 | - | 1.214
CCS(=O)(=O)CCNC(=O)[C@@]12CNC[C@@H]1CN(C1CCCC1)C2 | 9.285 | - | 0.09311 | -11.87
O=C1CC(N(C(=O)c2ccc(-n3cccc3)cc2)C2CC2)C(=O)N1 (stereo not shown) | 1.167 | 0 | -1.012 | 4.747
CC(C)OCCN1CCN(C(=O)c2cccc(-n3cccn3)n2)CC1 | -4.721 | -0.8039 | 1.754 | -
CCc1c(C)[nH]c(C2(N)CCCCC2)nc1=O.Cl | - | 12.7 | - | -
O=C(NCCc1cccc(Cl)c1)C1CCOCC1 | -17.27 | 7.915 | -3.66 | 3.481
c1cnc(-c2nc(CNC3CCc4ncnn4C3)cs2)nc1 (stereo not shown) | -20.91 | -29.03 | 22.33 | 3.421
N#CC1(NC(=O)CN2CCC(c3ccnn3CCO)CC2)CCCC1 | -30.29 | -6.778 | -1.261 | -1.05

The last 6 entries again:

O=C1CC(N(C(=O)c2ccc(-n3cccc3)cc2)C2CC2)C(=O)N1 (stereo not shown) gave ClpP1P2: 1.167%; Toxoplasma: 0%; MtTrpRS: -1.012%; CoaBC: 4.747%.
CC(C)OCCN1CCN(C(=O)c2cccc(-n3cccn3)n2)CC1 gave ClpP1P2: -4.721%; Toxoplasma: -0.8039%; MtTrpRS: 1.754%.
CCc1c(C)[nH]c(C2(N)CCCCC2)nc1=O.Cl gave Toxoplasma: 12.7%.
O=C(NCCc1cccc(Cl)c1)C1CCOCC1 gave ClpP1P2: -17.27%; Toxoplasma: 7.915%; MtTrpRS: -3.66%; CoaBC: 3.481%.
c1cnc(-c2nc(CNC3CCc4ncnn4C3)cs2)nc1 (stereo not shown) gave ClpP1P2: -20.91%; Toxoplasma: -29.03%; MtTrpRS: 22.33%; CoaBC: 3.421%.
N#CC1(NC(=O)CN2CCC(c3ccnn3CCO)CC2)CCCC1 gave ClpP1P2: -30.29%; Toxoplasma: -6.778%; MtTrpRS: -1.261%; CoaBC: -1.05%.